± gives the half width of the 95% confidence interval. The two proteases of the assay disagree for many of these sequences.
Columns and labels:
[1] = folding stability dG unfold (combined trypsin and chymotrypsin); higher = more stable
Procedure: (§1)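 Folding stability of de novo designed mini-proteins (<80 aa, no Cys; designed by TrROS, TrMRF, ProteinMPNN and the joint model) was measured by cDNA display proteolysis with trypsin and chymotrypsin. Each protease was used at 11 concentrations in a threefold dilution series plus a no-protease condition. K50 was inferred by Bayesian fitting of sequencing counts, and dG unfold was derived against a sequence-predicted unfolded-state K50 (Tsuboyama et al. method). Sequences shown include variable-length N-terminal GS-type padding (SAGGSAGG...) inside a display construct carrying a PA tag. Rows were kept only if the AF2 dimer inter-PAE was >15, to exclude likely homo-oligomers.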

[2] = folding stability dG unfold from chymotrypsin proteolysis; higher = more stable
Procedure: as §1

Sequence	folding stability dG unfold [1] [kcal/mol]	folding stability dG unfold [2] [kcal/mol]
SAGGSAGGSAGGMTVTELPNDTILVETDSPEEAEAIKAEFEKKGLPVEVFPENVIRVPKSAGGSAGGSAGGS [r10_1027_JUSTAS]	0.645 ± 0.1	1.24 ± 0.051
SAGAHTVSVHYVEPGSKKLSSVETSEITLEPGEELPLDEVAARFPSENYEVTAQEEPDAITITIYVYRGSAG [r5_269_JUSTAS]	0.547 ± 0.087	0.522 ± 0.27
SAGGVGFGIEPLPDGTYRLTVVVTSAGEGELTTSSLELTVPVAPLAPPAPPVPVRPGWRDGVPLPGTAASAG [r5_169_TrMRF]	1.24 ± 0.14	2.08 ± 0.041
SAGGTYTVEVTGSATFTLPDGSEVTVTGTATFTNDLAPDEEAVLADGSLIPASASAEELAQAALAAASAGGS [r16_440_TrMRF]	2.32 ± 0.25	2.97 ± 0.058
SAGGSAGGMVVVGDKKVAIVTPEKDPEAVLEKVKKEVPGGNVTLRPDVSPEELKAANEIVIELPSAGGSAGG [r6_680_JUSTAS]	0.614 ± 0.068	1.11 ± 0.032
SAGGSMSLDPDPAVRADPAFAGATVRRTTEPTPSGEVRVVETPVAVPAPVLTPEARAAALAAAAANAASAGG [r19_313_JUSTAS]	0.8 ± 0.065	1.31 ± 0.033
SAGGSAMVTVERRTLSPEGDLAVVEAEAAARGLTYVALGGDGTVVVIRTDDPAEFARRAAEIRAAASAGGSA [r15_546_JUSTAS]	0.325 ± 0.18	1.05 ± 0.14
SAGGSAGGSAGGPIEKALEFLAEHGGPVRVTLPDGRVAVIRVTRGDGALRVEIVPAEDLASAGGSAGGSAGG [r17_463_TrMRF]	0.647 ± 0.076	1.21 ± 0.04
SAGGSAGGSAGGMITVTTSSTPGTRTVTVTLPTGAPITLDFPPDETLADAIAAARAAIAASAGGSAGGSAGG [r7_265_JUSTAS]	0.651 ± 0.064	1.17 ± 0.018
SAGGMLTVEQIREAIKKLPPGARIKIKIEVNGKTYEIEIEVGEEIEFPPGLSEEDITRIEIVEIEEESAGGS [r16_97_TrROS_Hall]	4.55 ± 0.72	2.99 ± 0.12
SAGKKKPEKIEIEIEIEINGKKYKVKLEVEKIGNKYVVKMEITNKNGEKFKIEAVFDVKTGKLTLKIYPSAG [r5_316_TrROS_Hall]	3.18 ± 0.5	3.68 ± 0.21
SAGVVNATVTVTYPLPGLPERTLTVTLTFPATPEEAAALARALAALVAGLLTLLARLDAVDFDTSTSPDESA [r9_626_TrMRF]	3.69 ± 0.043	4.148 ± 0.022
SGLPEALAKAREFAEAVRRAHADHEVRIEAEAELTPDGRLRIRARVEVRPLPPAPPRPARGPDGPLVTLGSA [r9_82_TrMRF]	1.51 ± 0.069	1.95 ± 0.079
SAGGSEAAPGEKVTITTVTSSVLKTYETPTGTLETESSTSVTTTTVTVPAAAAAAAGVRYSPDPLLSAGGSA [r2_495_JUSTAS]	< -1	-0.348 ± 0.14
SMTEELTLTVEVPFTPPDGTTVTLTITVTGTAPVPEEILEEGSPYIPEEALAALKAAAEAAIAAATGRAASA [r9_629_JUSTAS]	0.888 ± 0.21	1.64 ± 0.14
SAGGSAGGSAGPVVLPVPFLGVDPDGRPLPRLAVFVFVPEPLREAAREAAKEADLEVVLDSAGGSAGGSAGG [r17_114_TrMRF]	< -1	1.03 ± 0.27
SAGGSAGGSAGGSMIEVVPGPGRVTVTTITEVEPLPPHEAVVVKTETTVVPAGNPAALGSAGGSAGGSAGGS [r4_137_JUSTAS]	0.696 ± 0.057	1.2 ± 0.02
SMVYVFEVPEGDPEKAEELIRAKLEEEFGYKVESVATPGGGGARVVLVVDPVEDKAYAEVIPFAPDGSPASA [r9_173_TrMRF]	0.618 ± 0.16	1.15 ± 0.2

Complete entries as entered above. Values in the order: folding stability dG unfold [1] [kcal/mol]	folding stability dG unfold [2] [kcal/mol]
SAGGSAGGMVVVGDKKVAIVTPEKDPEAVLEKVKKEVPGGNVTLRPDVSPEELKAANEIVIELPSAGGSAGG [r6_680_JUSTAS] in the list: 0.614 ± 0.068	1.11 ± 0.032
SAGGSAMVTVERRTLSPEGDLAVVEAEAAARGLTYVALGGDGTVVVIRTDDPAEFARRAAEIRAAASAGGSA [r15_546_JUSTAS] in the list: 0.325 ± 0.18	1.05 ± 0.14

Next records:

Sequence	folding stability dG unfold [1] [kcal/mol]	folding stability dG unfold [2] [kcal/mol]
SAGSPVRVELLEEPGKLVLTRVEVAPDGSVLRVEVEVRPEPPLPAAPPLYPELLVPDARGRLVSPLALLSAG [r5_685_JUSTAS]	0.671 ± 0.37	1.36 ± 0.18
SAGGAEELAKRLAEELREAGYEVEVVKVERLENGEVVITMKVRVVKDGKEVEEREIKLVLKLPEELLSAGGS [r8_102_TrROS_Hall]	3.98 ± 0.086	4.03 ± 0.069
SAGGSATLPPSFRPVEVEEKPTGGNESTEQRVVIERRRPDGTPVREELTATTTYDPSTGTTTTTVSSAGGSA [r15_1052_JUSTAS]	1.01 ± 0.08	1.5 ± 0.017
SAGGSAGGSMSEELLAEGPVRIRVRVRNKDGSVEEIEVEAGEEIELPEELKNQDVEIVSIEPVSAGGSAGGS [r12_161_TrROS_Hall]	1.74 ± 0.089	2.15 ± 0.088
SAGGSAGGSAGGSSSVSVDTDPETGLITVTTYSSSGGVTVTLYEKPPDGSLTPVSTTAVSAGGSAGGSAGGS [r4_106_JUSTAS]	1.01 ± 0.046	0.844 ± 0.07
SGPTATINPEVPGPVPGGEVIPATVEIDVPPDKIDEVVDRIAKEAGIPDLKVGKIEPTKDGKVKIVVERKSA [r9_1101_TrMRF]	0.626 ± 0.27	1.32 ± 0.1
SAGGSAGGSAGGSPPPGAAPPPLKLEVELVRVDRVELEERDGELSLHVESAEVLVVRLLSAGGSAGGSAGGS [r4_394_TrROS_Hall]	2.61 ± 0.11	3.17 ± 0.085
SAGGSAGGSAGGPSMRRTVNLKLFVTPEEEEKAEAIAKELKEKGVDVRDVEIILLPPELKSAGGSAGGSAGG [r11_533_JUSTAS]	0.575 ± 0.095	1.11 ± 0.059
SAGGMKPRVITFEVTADDPADKEKARAEALARAEALAEADPDRAILGTTATVEETDASVTVTLPVTVSSAGG [r13_305_JUSTAS]	0.485 ± 0.13	1.09 ± 0.12
SAGGSAEKPVRTLEITVTVPPGQPTPEELARALAEELGVEVTRVEVVRVERNEDGELTVTVRVEVKSAGGSA [r15_654_TrROS_Hall]	2.99 ± 0.14	2.5 ± 0.14
SAGGDKLGKPLGGKPVTFDISKEELSYNPSNGTWSKSVVTTPRTVFYPPDAEPDPAVFASGAGSVTLASAGG [r13_753_JUSTAS]	-0.184 ± 0.077	0.281 ± 0.091
SAGGISVEIYPPNGKKVELEGDTIPELMDKFPPGGNYVIKIEQPHVNPGNGKKQPMEMEFRVPPDDFSAGGS [r16_806_TrROS]	-0.697 ± 0.33	-0.202 ± 0.23
SAGGSAGGMARRRVTPEELARAVPPGQLALLYLPRSGRWAVVPPGVLEDLFAPEDDVLVELAPLSAGGSAGG [r6_893_TrMRF]	0.858 ± 0.15	1.53 ± 0.29
SSPSAPPVVRTETTTSEVVEKPGGVREKVTTPVTTTTLPDGTVTTTENVTTTFPDGSTTTSTSTSTDPAASA [r9_1201_JUSTAS]	1.51 ± 0.11	2.03 ± 0.12
SAGGSAGGSAGGLPPNPSYLLLPVDEGTTADEIREEVERLVEPDNVVVLTRPDGYALVFFSAGGSAGGSAGG [r7_273_TrMRF]	1 ± 0.17	1.59 ± 0.15
SAGGASPDEVWTATLLSFDPGSGGSTYQLQFTDPLAGTPTTLTASGDDPAAVQAALDALAAAGPVLLESAGG [r13_286_JUSTAS]	0.345 ± 0.11	1.1 ± 0.12
SAGGSAGGSAMITSDDLEKLLKKLGIDPKKLGPEKLAKIFKELYPDAIITADPEGKAYIYPSAGGSAGGSAG [r3_375_TrMRF]	1.2 ± 0.14	0.467 ± 0.19
SAGGSTVTVTVRRRVRVEVNGELREFEVEVTVTVRLPPPPPVIELPPEQVTRIEWDEETQELRVEVDSAGGS [r8_28_TrROS_Hall]	3.28 ± 0.21	3.33 ± 0.063
